The target of the test is human TSLP antigen tagged with Flag (hTSLP-Flag) (human) (UniProt Q969D9). In words: SPR, Biacore T200. For orientation: SPR reads the build-up and loss of mass on a sensor chip optically.

The chains behind the UniProt entries cited, without tags or fusion partners. Where a name states a change or a piece, a line headed by the entry shows the natural chain unless it says otherwise.
UniProt Q969D9: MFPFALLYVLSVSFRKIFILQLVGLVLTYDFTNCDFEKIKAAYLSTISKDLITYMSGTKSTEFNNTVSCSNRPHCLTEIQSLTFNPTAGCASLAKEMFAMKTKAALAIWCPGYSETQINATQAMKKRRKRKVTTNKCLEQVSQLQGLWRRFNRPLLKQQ

Results are given in words; binding and its absence hold for the method and conditions named. Binding calls can cover weak binding; strength is not graded here.

B1: humanized anti-human TSLP antibody 163H (antibody, human IgG1, kappa, V domains shown)
VH: EVQLVESGGGLVQPGGSLRLSCAASGFTFSSFGMHWVRQAPGKGLEWVSYISSGSSNIYYADTVKGRFTISRDNAKNSLYLQMNSLRAEDTAVYYCARDGGSRRHYYVMDYWGQGTLVTVSS
VL: EIVLTQSPATLSLSPGERATLSCKASQDVSPAVAWYQQKPGQSPRLLIYSASYRYTGVPARFSGSGSGTDFTLTISSLEPEDFAVYYCQQHYSSPFTFGQGTKLEIKR
notes: Humanized, human IgG1 constant region
With B1, the binding result is on record as “binds”.

For the origin of these results see patent publication US20240262904A1 (SHANGHAI MABGEEK BIOTECH, published 2024).
